Read-outs that look alike come from different tables or passages of the source. These are yes or no findings as the source states them, for the method shown. In cells and extracts the contact can be indirect. Some binding calls cover weakened binding; strength is not graded here. Sequences can lack the tags named with a protein.

Protein sequences, listed by entry. Tags and fused reporters are not part of them.
UniProt Q9H6L5: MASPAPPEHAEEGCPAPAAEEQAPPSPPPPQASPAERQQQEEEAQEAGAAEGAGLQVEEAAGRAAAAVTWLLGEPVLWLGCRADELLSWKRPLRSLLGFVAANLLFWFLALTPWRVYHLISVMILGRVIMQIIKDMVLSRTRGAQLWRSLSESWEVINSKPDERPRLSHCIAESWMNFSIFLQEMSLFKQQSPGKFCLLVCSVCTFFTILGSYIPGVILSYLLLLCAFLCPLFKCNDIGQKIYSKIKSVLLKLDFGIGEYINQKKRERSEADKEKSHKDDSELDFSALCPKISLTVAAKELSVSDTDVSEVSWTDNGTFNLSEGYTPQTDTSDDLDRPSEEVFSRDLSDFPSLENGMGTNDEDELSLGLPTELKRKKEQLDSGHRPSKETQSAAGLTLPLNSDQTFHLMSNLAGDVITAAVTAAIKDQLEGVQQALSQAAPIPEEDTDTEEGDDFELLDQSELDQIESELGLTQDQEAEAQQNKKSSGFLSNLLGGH

Assay [1] addresses T1, full length GFP-tagged NBR1 (GFP-NBR1^FL) (UniProt Q14596).
T1 sequence: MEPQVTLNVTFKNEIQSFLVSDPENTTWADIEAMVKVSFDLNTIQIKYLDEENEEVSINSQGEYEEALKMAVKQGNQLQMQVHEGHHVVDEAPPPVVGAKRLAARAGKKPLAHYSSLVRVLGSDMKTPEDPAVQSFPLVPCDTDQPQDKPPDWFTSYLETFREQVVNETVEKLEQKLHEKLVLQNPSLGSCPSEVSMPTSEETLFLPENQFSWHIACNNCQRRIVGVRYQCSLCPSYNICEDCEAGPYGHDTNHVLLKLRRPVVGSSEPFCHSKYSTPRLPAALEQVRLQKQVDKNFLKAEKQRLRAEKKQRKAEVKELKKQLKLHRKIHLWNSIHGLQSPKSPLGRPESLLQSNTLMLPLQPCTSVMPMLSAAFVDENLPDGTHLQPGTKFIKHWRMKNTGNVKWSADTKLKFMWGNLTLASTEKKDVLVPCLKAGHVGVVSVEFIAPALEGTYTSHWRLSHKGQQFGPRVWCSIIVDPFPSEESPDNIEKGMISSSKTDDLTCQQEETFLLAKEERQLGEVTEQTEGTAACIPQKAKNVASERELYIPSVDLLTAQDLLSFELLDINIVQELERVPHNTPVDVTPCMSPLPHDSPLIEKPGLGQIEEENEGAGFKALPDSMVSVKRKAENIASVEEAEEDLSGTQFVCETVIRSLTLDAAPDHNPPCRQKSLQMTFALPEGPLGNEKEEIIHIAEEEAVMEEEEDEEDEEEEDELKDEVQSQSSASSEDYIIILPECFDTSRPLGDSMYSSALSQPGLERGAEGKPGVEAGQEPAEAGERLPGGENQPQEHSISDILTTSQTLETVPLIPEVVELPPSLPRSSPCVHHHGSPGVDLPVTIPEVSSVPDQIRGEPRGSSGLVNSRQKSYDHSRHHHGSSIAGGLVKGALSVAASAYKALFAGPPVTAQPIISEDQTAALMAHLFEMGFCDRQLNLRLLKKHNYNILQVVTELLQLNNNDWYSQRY
The assay can be described thus: co-IP.

Assay [2] concerns the target T1, full length GFP-tagged NBR1 (GFP-NBR1^FL). The assay can be described thus: co-IP. The source holds these as a separate data set.

As to FAM134B (from UniProt Q9H6L5 1-497), the binding entry in assay [1] is reported as “binds weakly”.

B1: CCPG1 (protein, UniProt Q9ULG6 1-757)
chain: MSENSSDSDSSCGWTVISHEGSDIEMLNSVTPTDSCEPAPECSSLEQEELQALQIEQGESSQNGTVLMEETAYPALEETSSTIEAEEQKIPEDSIYIGTASDDSDIVTLEPPKLEEIGNQEVVIVEEAQSSEDFNMGSSSSSQYTFCQPETVFSSQPSDDESSSDETSNQPSPAFRRRRARKKTVSASESEDRLVAEQETEPSKELSKRQFSSGLNKCVILALVIAISMGFGHFYGTIQIQKRQQLVRKIHEDELNDMKDYLSQCQQEQESFIDYKSLKENLARCWTLTEAEKMSFETQKTNLATENQYLRVSLEKEEKALSSLQEELNKLREQIRILEDKGTSTELVKENQKLKQHLEEEKQKKHSFLSQRETLLTEAKMLKRELERERLVTTALRGELQQLSGSQLHGKSDSPNVYTEKKEIAILRERLTELERKLTFEQQRSDLWERLYVEAKDQNGKQGTDGKKKGGRGSHRAKNKSKETFLGSVKETFDAMKNSTKEFVRHHKEKIKQAKEAVKENLKKFSDSVKSTFRHFKDTTKNIFDEKGNKRFGATKEAAEKPRTVFSDYLHPQYKAPTENHHNRGPTMQNDGRKEKPVHFKEFRKNTNSKKCSPGHDCRENSHSFRKACSGVFDCAQQESMSLFNTVVNPIRMDEFRQIIQRYMLKELDTFCHWNELDQFINKFFLNGVFIHDQKLFTDFVNDVKDYLRNMKEYEVDNDGVFEKLDEYIYRHFFGHTFSPPYGPRSVYIKPCHYSSL
As to B1, the binding entry in assay [2] was “binds”.

(Values after paper doi:10.1101/2024.10.27.620516.)
